Drawing on the supplement of paper PMC11150407, this text covers cell viability for 104 compounds.

Among all 3,000 compounds or so, about 45 (2%) showed an effect of 50% or more. This is one part of the list.

The subject of the test is MOLM1 and UCSD/AML1 (averaged). The experiment in a line: cell viability relative to DMSO control (POC); higher = less growth inhibition. The conditions noted are these: 1 µM; 72 h. Here is the method: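 Primary viability screen in the 3q26 EVI1-high AML cell lines MOLM1 and UCSD/AML1, compounds at 1 uM for 72 h. ATP CellTiter-Glo read-out given as percent viable over DMSO control (POC), averaged over duplicates. This mapping covers the TimTec NDL-3000 natural derivative library, whose compounds are identified by TimTec catalogue codes (ST...).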
As a reminder, the cell viability is a read-out of living cells in per cent, often relative to untreated cells. For `Cc1ccc(C(=O)N/C(=C\c2ccco2)C(=O)NCCc2c(C)[nH]c3ccccc23)cc1`, the cell viability is 99.6%. To `CCN1C=C(C(=O)OC)C(c2cc(OC)c(OC)c(OC)c2)C(C(=O)OC)=C1` belongs 113%; to `COc1cc(C2NC(=O)NC(C)=C2C(=O)OC2CCCCCCC2)cc(Cl)c1O` (centres undefined), 71%; to `CN1/C(=C\C(=O)Nc2ccc(Cl)cc2)c2ccccc2CC1(C)C`, 85.5%. Regarding `CCOc1ccccc1NC(=O)c1ccc2c(c1)OCO2`, the cell viability came to 103%. Next, `COc1ccc(S(=O)(=O)N2Cc3ccccc3CC2C(=O)NCc2ccccc2)cc1` (centres undefined): 103%. To `COc1cccc(/C=C/C(=O)c2ccc3c(c2)OCO3)c1` belongs 96.7%; to `CCOCCOC(=O)C1=C(C)NC2=C(C(=O)CCC2)C1c1cc(Cl)c(O)c(OC)c1` (centres undefined), 111%. For the compound `CNC(=O)c1ccc(OC)c(OC)c1`, the cell viability worked out at 105%. As to `COc1cc(OC)cc(C(=O)N2CCN(S(=O)(=O)c3ccc4ccccc4c3)CC2)c1`, the cell viability was found to be 102%. As for `O=C(Oc1ccc2oc(-c3ccco3)cc(=O)c2c1)c1cccnc1`, the cell viability turned out to be 101%.

As to `O=C(Cn1c(=O)cc(C(=O)N2CCc3ccccc3C2)c2ccccc21)Nc1ccc(F)cc1`, the cell viability worked out at 117%. For `COc1cc2nc(SCc3nc4ccccc4[nH]3)[nH]c2cc1OC`, the cell viability is 98.9%.

With `COc1ccc(C=O)cc1COc1ccc2c(c1)CCC2`, the cell viability is 47.2%.

For the compound `Cc1cc(C)cc(OCC(=O)N/N=C/c2ccc3c(c2)OCO3)c1`, the cell viability was determined as 97.3%. Turning to `COc1ccc(C(=O)C2[C@H]3C4COC(O4)C(=O)[C@H]3[C@@H]3c4ccccc4C=CN23)cc1` (some centres undefined), the cell viability was found to be 100%. To `CC(=O)[C@H]1CC[C@H]2[C@@H]3C[C@H](C)C4=CC(=O)CC[C@]4(C)[C@H]3[C@@H](O)C[C@]12C` belongs 77.3%. As to `CNC(=O)c1cc(=O)n(CC(=O)Nc2cccc(F)c2)c2ccccc12`, the cell viability is 103%. For `CC(C)(C)C(=O)CSc1ncnc2c1ncn2CC(=O)C(C)(C)C`, the cell viability is 99.5%. With `COc1ccc(C2NC(C(=O)O)Cc3c2[nH]c2ccccc32)cc1OC` (centres undefined), the cell viability was determined as 109%.

With `O=C(O)/C(=C/c1ccccc1)c1ccccc1`, the cell viability stood at 105%. For the compound `Cc1cc(=O)[nH]c(SCC(=O)Nc2cccc(C)c2C)n1`, the cell viability was determined as 114%. To `COc1cc2c(cc1OC)CN(C(=O)c1sc3nc(C4CC4)cc(C(F)(F)F)c3c1N)CC2` belongs 99.6%; to `CCOc1ccc2oc(=O)cc(CN3CCN(CC(=O)N(C)c4ccccc4)CC3)c2c1`, 99.1%; to `Cn1c(C(=O)Nc2cccc(Cl)c2Cl)cc(=O)n(C)c1=O`, 95.9%. Take `Cc1ccc2c(CN3CCN(Cc4nc(-c5ccc(Cl)cc5)oc4C)CC3)cc(=O)oc2c1`: the cell viability was 98.5%.

Take `Cc1nc2c(nc(SCc3nc(-c4ccc(OC(C)C)cc4)oc3C)n2C)c(=O)[nH]1`: the cell viability amounted to 99%.

Turning to `COC(=O)C1=C(N)Oc2c(oc(CO)cc2=O)C1c1ccccc1[N+](=O)[O-]` (centres undefined), the cell viability came out at 104%. With `Nc1c(Br)c(=O)[nH]c(=O)n1-c1ccccc1Cl`, the cell viability was 112%. `CC(=O)O/C(=C\c1cn(C(C)=O)c2ccccc12)C(=O)O`: the cell viability stood at 87.4%.

As for `CCc1ccc(NC(=O)CSc2nc3ccccc3c(=O)[nH]2)cc1`, the cell viability was 97%. As for `COc1cc(-c2nn(CNc3ccc(F)cc3)c(=S)o2)cc(OC)c1OC`, the cell viability was 91.1%. As to `O=C(NC(Cc1ccccc1)C(=O)O)OCc1ccccc1` (centres undefined), the cell viability was 101%.

In the case of `N#CC1=C(N)Oc2c(oc(CO)cc2=O)C1c1cccc2ccccc12` (centres undefined), the cell viability worked out at 108%.

With `COc1cc(NC(=O)Cn2c(=O)cc(C(=O)N3CCOCC3)c3ccccc32)cc(OC)c1`, the cell viability came out at 95.4%. As for `Cn1c(=O)[nH]c(=O)c2c1nc(N/N=C/c1cccc([N+](=O)[O-])c1)n2Cc1ccccc1Cl`, the cell viability was found to be 97.5%. Consider `Nc1c(C(=O)N2CCC[C@H]2C(=O)O)sc2nc3c(cc12)CCCC3`, for which the cell viability came out at 91.8%. For the compound `O=C(Nc1ccc(I)cc1)C(Cc1c[nH]c2ccccc12)NC(=O)C(c1ccccc1)c1ccccc1` (centres undefined), the cell viability was 93%.

With `CCN(CC)C(=O)c1cc(=O)n(CC(=O)Nc2cccc(Br)c2)c2ccccc12`, the cell viability stood at 98.6%.

`CN(C)S(=O)(=O)Nc1ccc(S(=O)(=O)N2CCc3ccccc3C2)cc1`: the cell viability came out at 98.2%. In the case of `COc1cc(/C=N/NC(=O)CCC(=O)Nc2ccccc2C)cc(OC)c1OC`, the cell viability is 91.6%. On to `Cn1c(SCC(=O)Nc2cccc(F)c2)nc2c(=O)[nH]cnc21`, for which the cell viability was 86.7%. Next, `Cc1nc2c(nc(SCC(=O)Nc3ccc(C)c(F)c3)n2C)c(=O)[nH]1`: 103%; `CCn1c(SCc2ccc(C)cc2)nc2c(=O)[nH]cnc21`: 90.8%; `Cc1ccc(NCCC(=O)c2ccc3c(c2)OCO3)cc1C`: 95.1%. Next, `O=C(NCCc1c[nH]c2ccccc12)C1CC1(c1ccccc1)c1ccccc1` (centres undefined): 105%.

Turning to `COc1ccc(CCNC(=O)CCl)cc1OC`, the cell viability was found to be 103%. As to `CNc1nc(C(N)=O)c(NC(=O)c2ccc(OC)c(OC)c2)s1`, the cell viability came out at 90.9%. Next, `COCC(=O)c1c(O)cc(OC)cc1OC`: 100%.

Consider `Cc1ccc(C)c(CSc2nc3c(=O)[nH]cnc3n2C)c1`, for which the cell viability was 95%. Consider `COc1ccc(C(=O)CCNc2ccccc2)cc1OC`, for which the cell viability amounted to 97.5%.

For the compound `CC(NC(=O)CSc1nc2ccccc2c(=O)[nH]1)c1ccccc1` (centres undefined), the cell viability came out at 103%.

Consider `C=CCn1c(SCc2cc(=O)[nH]c3ccccc23)nnc1-c1cccc(Br)c1`, for which the cell viability was 101%. For `O=C(O)c1nc2ccccc2[nH]c1=O`, the cell viability was 98.1%.

As for `Cn1c2c(c(=O)n(C)c1=O)C(C(F)(F)F)(C(F)(F)F)N=C(Cc1ccccc1)N2`, the cell viability was 91.5%. To `COc1ccc(/C=C/C(=O)N2CCc3c([nH]c4ccccc34)C2c2ccc(OC)cc2)cc1` (centres undefined) belongs 90.2%; to `COc1ccc(C(=O)CCNc2ccc(C(=O)O)cc2)cc1OC`, 109%. As for `COc1ccc(C(=O)NCc2ccccc2)cc1OC`, the cell viability was found to be 94.4%. `Cn1c(=O)[nH]c(=O)c2c1nc(NCCO)n2CC(O)COc1ccc(Cl)cc1` (centres undefined): the cell viability was 116%. Next, `COC(=O)C1=C(C)NC2=C(C(=O)CCC2)C1c1ccc(O)c(OC)c1` (centres undefined): 92.4%; `Cc1cc2oc(-c3ccc(Br)cc3)cc(=O)c2cc1Cl`: 114%. On to `Cc1cc(C(=O)NC(Cc2ccccc2)C(=O)O)c(C)o1` (centres undefined), for which the cell viability amounted to 94.5%. As for `COc1cc(CCC(C)=O)ccc1O`, the cell viability turned out to be 93.8%. For `CCOC(=O)c1ccccc1NC(=O)C(C)C`, the cell viability came to 103%. Regarding `CCc1cccc(NC(=O)CSc2nc3c(=O)[nH]cnc3n2C)c1`, the cell viability came out at 101%. `COc1ccc2[nH]c(C)c(CCNC(=O)c3cc4ccccc4oc3=O)c2c1`: the cell viability was 94.3%. Take `O=C(CSc1nc2ccccc2c(=O)[nH]1)Nc1cccc(Br)c1`: the cell viability is 90.3%. As to `CC(C)c1ccc(NC(=O)Cn2c(=O)cc(C(=O)N3CCc4ccccc4C3)c3ccccc32)cc1`, the cell viability stood at 97.1%. To `COC(=O)C1=CNC=C(C(=O)OC)C1c1cc(OC)c(OC)c(OC)c1` belongs 110%. Take `c1ccc2c(NC3CCCC3)nc(N3CCNCC3)nc2c1`: the cell viability amounted to 98.7%. Next, `COCCOC(=O)c1c(C)n(CCCNc2ccc([N+](=O)[O-])cc2)c2ccc(O)cc12`: 96%; `Cn1c(SCC(=O)O)nc2c1c(=O)[nH]c(=O)n2C`: 101%. As for `N#Cc1ccccc1/C=C/C(=O)O`, the cell viability came out at 99.1%.

With `CCc1cccc(C)c1NC(=O)Cn1c(=O)cc(C(=O)N2CCc3ccccc3C2)c2ccccc21`, the cell viability is 95.5%. Take `CCOC(=O)c1c(CSCc2ccccc2)n(-c2ccccc2)c2cc(Br)c(OC)cc12`: the cell viability was determined as 110%. In the case of `Cc1[nH]c2ccccc2c1CCNC(N)=O`, the cell viability is 98.3%.

For `O=C(COC(=O)/C=C/c1ccccc1)Nc1ccccc1`, the cell viability turned out to be 107%. Regarding `COC(=O)CNC(=O)c1cccc(Cl)c1`, the cell viability is 95.3%. On to `CCN(CC)c1ccc(C2C3CCCCC3(O)CCN2C(=O)/C=C/c2ccc(OC)c(OC)c2)cc1` (centres undefined), for which the cell viability stood at 102%. For the compound `CNC(=S)NNC(=O)c1ccc(OC)c(OC)c1`, the cell viability is 102%. `CCOC(=O)C1Cc2c([nH]c3ccccc23)C(c2ccc(OC)c(CN3CCN(c4ccccc4OC)CC3)c2)N1` (centres undefined): the cell viability amounted to 102%. For the compound `COC(=O)CNC(=O)c1ccc([N+](=O)[O-])cc1Cl`, the cell viability stood at 91.1%. `COc1ccc(C2c3[nH]c4ccccc4c3CCN2Cc2ccccc2F)cc1` (centres undefined): the cell viability came out at 98%.

In the case of `COc1cc(/C=N\Nc2nc(-c3cccc([N+](=O)[O-])c3)cs2)cc(OC)c1O`, the cell viability amounted to 66.4%. Turning to `CC(C)CCCC(C)C1CCC2C3CC=C4CC(OC(=O)c5cccc([N+](=O)[O-])c5)CCC4(C)C3CCC12C` (centres undefined), the cell viability turned out to be 94.3%. `Cc1ccc(-n2c(SCC(=O)Nc3ccc(C)c(F)c3)nc3c(=O)[nH]cnc32)cc1`: the cell viability was determined as 103%. As for `COc1ccc(C(=O)N2CCN(C(=O)c3ccccc3OC)CC2)cc1OC`, the cell viability was determined as 105%. Next, `Cc1cc(C)c(NC(=O)Cn2c(=O)cc(C(=O)N3CCCCC3)c3ccccc32)c(C)c1`: 99.4%. With `OCC1COCC(O)C(O)C(O)C1O` (centres undefined), the cell viability is 100%. Consider `O=Cc1ccc(-c2cc(OC(F)(F)F)cc(OC(F)(F)F)c2)o1`, for which the cell viability was 102%. For `Cc1cc2c(C(C)C)c(O)c(O)c(C=NC3CCS(=O)(=O)C3)c2c(O)c1-c1c(C)cc2c(C(C)C)c(O)c(O)c(C=NC3CCS(=O)(=O)C3)c2c1O` (centres undefined), the cell viability worked out at 96.1%. For `N#Cc1cccc(NC(=O)CSc2nc3ccccc3c(=O)[nH]2)c1`, the cell viability turned out to be 104%. `CCOc1cc(C2C(C#N)=C(N)OC3=C2C(=O)CC(C)(C)C3)cc([N+](=O)[O-])c1O` (centres undefined): the cell viability amounted to 101%. To `Cc1ccc(C)c(NC(=O)CSc2nc3c(=O)[nH]cnc3n2C)c1` belongs 91.2%; to `Cc1cc2occ(C#N)c(=O)c2cc1Cl`, 102%. Consider `COc1cccc(NC(=O)COc2ccc3c4c(c(=O)oc3c2C)CCC4)c1`, for which the cell viability came to 102%.

Consider `COc1cc(OC)cc(C(=O)N2CCN(C(=O)c3ccc(F)cc3)CC2)c1`, for which the cell viability came to 107%. As for `CC(C)Oc1ccccc1C1Nc2ccccc2NC2=C1C(=O)CC(c1ccc(Cl)cc1)C2` (centres undefined), the cell viability came to 80.3%. As to `COc1cc(C2C(C#N)=C(N)Oc3n[nH]c(C)c32)cc(OC)c1O` (centres undefined), the cell viability stood at 108%.

On to `COc1ccc(NC(=O)c2cc3ccccc3oc2=N)cc1`, for which the cell viability came out at 93.8%. To `Cc1ccc2c(c1)c1c3n2CCN(CCC#N)C3CCC1` (centres undefined) belongs 98%; to `CC(=O)Oc1ccc2c(c1)oc(=O)c1c3cc(OC(C)=O)c(OC(C)=O)cc3oc21`, 105%. Next, `COc1cc(OC)cc(C(c2c(C)[nH][nH]c2=O)C(C#N)C#N)c1` (centres undefined): 103%; `Cc1ccc(/C=C/C(=O)Oc2ccc(C=Nc3cccc(C(F)(F)F)c3)cc2)cc1`: 109%.
